We go through 2 molecules from publication PMC4373692.

Positions count from the first letter of the chain named. Results are given in words; binding and its absence hold for the method and conditions named. Binding seen in cells or lysates may run through a third protein. Some results given as binding are weak or reduced against the parent protein; the word gives no strength.

In this assay the target is T1, mitochondrial asparaginyl-tRNA synthetase NARS2, wild type (human) (UniProt Q96I59).
T1 sequence: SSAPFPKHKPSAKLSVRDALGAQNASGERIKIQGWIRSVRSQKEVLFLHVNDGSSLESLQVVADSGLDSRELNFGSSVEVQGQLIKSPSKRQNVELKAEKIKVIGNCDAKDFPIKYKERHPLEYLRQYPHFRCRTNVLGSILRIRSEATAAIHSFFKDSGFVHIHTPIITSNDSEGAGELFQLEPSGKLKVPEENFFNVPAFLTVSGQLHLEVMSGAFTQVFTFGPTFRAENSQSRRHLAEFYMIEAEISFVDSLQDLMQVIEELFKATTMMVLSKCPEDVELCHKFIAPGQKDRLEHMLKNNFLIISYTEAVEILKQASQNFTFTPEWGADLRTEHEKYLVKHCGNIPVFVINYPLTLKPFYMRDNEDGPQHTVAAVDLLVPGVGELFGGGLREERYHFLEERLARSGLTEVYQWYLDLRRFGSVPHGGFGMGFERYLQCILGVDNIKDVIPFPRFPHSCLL
Nature of the assay: co-IP; GFP- and HA-tagged NARS2 constructs co-expressed in HEK293T cells; lysis buffer 50mM Tris HCl pH7.4, 100mM NaCl, 1% NP-40, 2mM Na3VO4; immunoprecipitation with anti-GFP antibody, blots for GFP and HA.

B1: mitochondrial asparaginyl-tRNA synthetase NARS2, wild type (enzyme, UniProt Q96I59-1 15-477)
chain: T1 sequence
Turning to B1, the binding result is on record as “binds”.

B2: p.Val213Phe NARS2 (enzyme, UniProt Q96I59-1 15-477)
chain: T1 sequence with V199F
Consider B2, for which the binding result was “binds”.
